Results deposited as PubChem BioAssay AID1259405 (NCATS, 2018).
In all, the deposit lists about 50,000 reagents; shown is an unselected part. Of all reagents, about 4,000 (8%) are marked active. 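Mouse siRNA library applied to hamster cells; one well for each siRNA.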 Unmarked entries are inactive. Reagents against one gene are numbered here.

Aim: 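Knock-downs that lift recombinant protein yield in hamster ovary cells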 (primary screen)
Cell system: Chinese hamster CHO-K1 ovary cells with stable secreted eGFP expression
Reagent: single siRNA against mouse genes, 0.8 pmol siRNA per well (2 µl of 400 nM stock)
Time to read-out: 3 days
Measured: 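Percent of the per-plate non-targeting control median for intracellular GFP per well by laser scanning cytometry and for cell viability by ATP luminescence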
Reading the numbers: GFP, % of control: higher = more GFP per well, higher productivity; viability (ATP), % of control: higher = more viable cells (more ATP)
Rule for the call: 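Called active when intracellular GFP, relative to negative control, is at or above 120%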

| gene | siRNA no. | GFP, % of control | viability (ATP), % of control |
| --- | --- | --- | --- |
| Prr3 | 1 | 115 | 71.1 |
| Prr3 | 2 | 58.9 | 63.7 |
| Prr3 | 3 | 45.2 | 80.1 |
| Tet3 | 1 | 79.9 | 52.8 |
| Tet3 | 2 | 61.4 | 83.4 |
| Tet3 | 3 | 73.5 | 82.1 |
| Or52h9 | 1 | 75.8 | 55.5 |
| Or52h9 | 2 | 111 | 71.5 |
| Or52h9 | 3 | 59.5 | 59.3 |
| Lmtk3 | 1 | 111 | 103 |
| Duoxa2 | 1 | 34.7 | 15.5 |
| Duoxa2 | 2 | 73.3 | 70.7 |
| Duoxa2 | 3 | 103 | 119 |
| Chst8 | 1 | 93.9 | 99.8 |
| Chst8 | 2 | 83.2 | 114 |
| Chst8 | 3 | 92.8 | 139 |
| Scg3 | 1 | 83.2 | 82.3 |
| Scg3 | 2 | 73 | 46.7 |
| Scg3 | 3 | 41.8 | 60.1 |

Already shown: entries from further up.
| gene | siRNA no. | GFP, % of control | viability (ATP), % of control |
| --- | --- | --- | --- |
| Or52h9 | 1 | 75.8 | 55.5 |
| Or52h9 | 2 | 111 | 71.5 |
| Or52h9 | 3 | 59.5 | 59.3 |
| Lmtk3 | 1 | 111 | 103 |

The results go on.
| gene | siRNA no. | GFP, % of control | viability (ATP), % of control |
| --- | --- | --- | --- |
| Reg4 | 1 | 34.8 | 49 |
| Reg4 | 2 | 92.4 | 55.8 |
| Reg4 | 3 | 40 | 73.7 |
| Tmtc2 | 1 | 80.9 | 76.2 |
| Tmtc2 | 2 | 61.1 | 82.6 |
| Tmtc2 | 3 | 52.5 | 54.7 |
| Abhd14a | 1 | 98.5 | 103 |
| Abhd14a | 2 | 74.9 | 81.1 |
| Abhd14a | 3 | 32.4 | 43 |
| Ftdc2 | 1 | 49.4 | 86.8 |
| Ftdc2 | 2 | 59.4 | 84 |
| Ftdc2 | 3 | 130 (active) | 85.8 |
| Usp8 | 1 | 95.7 | 100 |
| Usp8 | 2 | 44.2 | 58.4 |
| Usp8 | 3 | 55.3 | 55.7 |
